The record followed here is PubChem BioAssay AID2685 (National Center for Advancing Translational Sciences (NCATS), 2010).

As a reminder, the AC50 is the concentration at which the activity in the assay is half-maximal. Read a high AC50 as weaker potency.

This assay in a line: qHTS Assay for Lipid Storage Modulators in Drosophila S3 Cells.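 As to cell number change: cells counted by Cell Tracker Red CMTPX staining in the red channel.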 Conditions: BODIPY lipid droplet fluorescence, 18-24 h; for cell number change: measured here: cell count max response, cells fed with added oleic acid. In short, it runs like this: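 Drosophila S3 cells got compounds at several concentrations plus oleic acid (400 uM solution). Laser-scanning cytometry with 488 nm excitation read lipid droplets at 500-530 nm and cells at 575-640 nm. Percent activity was relative to 20 uM Triacsin C.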
(In general: In qHTS, concentration-response curves come from the screen itself.)

[1] abbreviates: measured here: cell number channel AC50, cells fed with added oleic acid.
The mark [2] stands for this setting: measured here: lipid fluorescence (Fed channel) AC50, cells fed with added oleic acid.

The other results are listed elsewhere or left out. Shown are side measurements of this screen, not its main read-out; they come without a call. The list favours compounds with an active or inconclusive main result. Potencies come from curve fits of mixed quality, noted in brackets.

For the compound `COc1ccc(-c2cn3c(C)c(C(=O)Nc4cccc(C)n4)sc3n2)cc1`, the cell number change was -34.5%. The AC50 under setting [1] was 29.1 µM [falling, single point]. Besides, the AC50 under setting [2] was 29.1 µM [falling, single point].

Consider `C=Cn1c(N2CCOCC2)nc2c1c(=O)[nH]c(=O)n2C`, for which the AC50 under setting [2] is 29.1 µM [rising, single point].

As to `CCCC(=O)Nc1ccccc1NC(=O)c1ccc2c(c1)OCO2`, the cell number change was -4.14%. The AC50 under setting [1] was 6.51 µM [falling, single point]. For the same compound, under setting [2], the AC50 is 0.13 µM [falling, full curve, poor fit].

In the case of `CCNC(C(=O)c1c[nH]c2c(CC)cccc12)c1ccccc1` (stereo unspecified), the cell number change came to 15%.

`CCOC(=O)c1c(C)[nH]c(C)c1S(=O)(=O)N(C)CC(=O)Nc1cccc(F)c1`: the cell number change is -8.06%.

For the compound `CCNC(=O)CCSc1nnc(-c2ccco2)o1`, the cell number change stood at 47.2%.

For the compound `O=C(CCNS(=O)(=O)c1cccc2nonc12)NC1CCCc2ccccc21` (stereo unspecified), under setting [2], the AC50 is 0.13 µM [falling, full curve, poor fit].

For `CCOC(=O)C1(Cc2ccccc2C)CCCN(C(=O)c2ccccn2)C1` (stereo unspecified), the cell number change turned out to be 27.4%. Besides, the AC50 under setting [2] was 7.31 µM [rising, partial curve, poor fit].

On to `Cc1oc(-c2ccccc2F)nc1CN1CCC(C(=O)NC2CC2)CC1`, for which the cell number change was 15.8%. The AC50 under setting [2] was 0.731 µM [rising, full curve, poor fit].

Consider `COc1ccc2nc(C)c3cc(C)oc3c2c1`, for which the AC50 under setting [1] is 6.51 µM [rising, single point].

In the case of `CN(C)S(=O)(=O)N1CCc2ccccc21`, the cell number change was 1.95%. In addition, under setting [2], the AC50 was 0.13 µM [falling, full curve, poor fit].

Regarding `CC1CCCC(C(=O)O)N1C(=O)CCSC(=O)c1ccccc1` (stereo unspecified), the cell number change is -22.7%. Further, the AC50 under setting [2] was 20.6 µM [falling, single point].

Regarding `O=C(Nc1nc2ccccc2s1)c1ccc(F)cc1`, the cell number change came to 7.87%. In addition, under setting [2], the AC50 was 0.00517 µM [rising, full curve, poor fit].

For `O=C(CN1CCN(c2ccccn2)CC1)Nc1nc2ccccc2s1`, the cell number change worked out at 8.45%. Under setting [2], the AC50 was 18.4 µM [falling, single point].

For the compound `CC(C)N(C(=O)CSc1nnc(NC(=O)c2ccco2)s1)C(C)C`, the cell number change is -24.5%.

As for `N=c1c2c(-c3ccccc3)c(-c3ccccc3)n(Cc3ccco3)c2ncn1CCCn1ccnc1`, the cell number change is -13.4%. Besides, the AC50 under setting [1] was 0.92 µM [rising, full curve, poor fit].

With `Cc1cccc(-c2noc(-c3ccc(Cl)cc3[N+](=O)[O-])n2)c1`, the cell number change is 5.2%. For the same compound, the AC50 under setting [2] was 1.46 µM [rising, full curve, poor fit].

For `COc1ccc(-c2cc(-c3nnc(COC(=O)C4CC4C)o3)c3ccccc3n2)cc1OC` (stereo unspecified), the cell number change came to 6.51%. In addition, the AC50 under setting [2] was 6.51 µM [rising, partial curve, poor fit].
